The test system of the test is L1210 leukemia ip in BDF1 mice, survival T/C. Description: NCI In Vivo Anticancer Drug Screen. Data for tumor model L1210 Leukemia (intraperitoneal) in B6D2F1 (BDF1) mice. Conditions: T/C endpoint: mean survival time, higher T/C = longer survival.
[1] abbreviates: dose: 200.0 mg/kg/injection, schedule: Q04DX003 (ip), vehicle: saline.
Where [2] appears, read: dose: 400.0 mg/kg/injection, schedule: Q01DX001 (ip), vehicle: saline.
[3] abbreviates: dose: 300.0 mg/kg/injection, schedule: Q01DX001 (ip), vehicle: saline.
Setting [4] is: dose: 100.0 mg/kg/injection, schedule: Q01DX009 (ip), vehicle: saline with Tween-80.
Setting [5] is: dose: 200.0 mg/kg/injection, schedule: Q01DX009 (ip), vehicle: saline with Tween-80.
Where [6] appears, read: dose: 400.0 mg/kg/injection, schedule: Q01DX009 (ip), vehicle: saline with Tween-80.
The mark [7] stands for this setting: dose: 400.0 mg/kg/injection, schedule: Q01DX009 (ip), vehicle: Klucel (hydroxypropylcellulose) (HPC).
Setting [8] is: dose: 400.0 mg/kg/injection, schedule: Q01DX001 (ip), vehicle: carboxymethylcellulose (CMC).
The mark [9] stands for this setting: dose: 75.0 mg/kg/injection, schedule: Q01DX001 (ip), vehicle: saline.
[10] abbreviates: dose: 100.0 mg/kg/injection, schedule: Q04DX003 (ip), vehicle: saline.
The mark [11] stands for this setting: dose: 400.0 mg/kg/injection, schedule: Q04DX003 (ip), vehicle: saline.

The list does not hold the whole screen: it is rich in T/C values a quarter to a half above the control, in often repeated tests (any T/C) and in doses without a T/C. Other doses and runs of a compound stand elsewhere. T/C gives the treated animals as a percentage of the vehicle group. Some entries give survivors of the animals treated and no T/C: the source files T/C as zero there, which appears to mark a toxic dose or a test without result, not a measured value. Some doses without a T/C left all or most animals alive at the check, yet need not have been tolerated: the source hardly ever lists a survival T/C far under the control, and the zero likely stands for such cases as well. Counts of survivors are from the toxicity check (mostly the fifth day) where no day follows; animals may have died later. Schedules are NCI's codes, read here as Q, the interval in days (D) or hours (H), X, the number of doses. Some doses were run more than once; the values are given in rising order. For survival time, this PubChem deposit counts one and a half times the control or more as active, and values a quarter to a half above the control carry no call in these data; other NCI protocols may use other cut-offs. Brackets with × say how often a value occurs here. Some T/C values carry the count of animals alive at the toxicity check (mostly the fifth day); without a count, all were alive then.

Consider `Nc1nc(Cl)nc2c1ncn2C1OC(CO)C(O)C1O` (stereo unspecified), for which the T/C is 128 % of control [5 of 6 alive] (dose: 75.0 mg/kg/injection, schedule: Q01DX009 (ip), vehicle: saline with Tween-80); 126 % of control (2×) (dose: 132.0 mg/kg/injection, schedule: Q04DX003 (ip), vehicle: saline); 129 % of control [4 of 6 alive] (dose: 150.0 mg/kg/injection, schedule: Q01DX009 (ip), vehicle: saline with Tween-80); 143 % of control (dose: 150.0 mg/kg/injection, schedule: Q01DX009 (ip), vehicle: saline); 125 [5 of 6 alive], 134, 139 % of control under setting [1]; 134 % of control (dose: 300.0 mg/kg/injection, schedule: Q04DX003 (ip), vehicle: saline). Besides, the survivor count under setting [2] is recorded as 3 of 6.
As to `COC(=O)c1ccc[n+](Cc2c(Cl)cccc2Cl)c1`, the survivor count under setting [3] is recorded as 2 of 6.
On to `COC(=O)c1cccc2cn3ccc4c5ccccc5nc-4c3cc12`, for which the survivor count (dose: 200.0 mg/kg/injection, schedule: Q01DX001 (ip), vehicle: saline with Tween-80) is 3 of 3.
Turning to `CC1CCC2C(CCC3CCCCC32)C1` (stereo unspecified), the survivor count under setting [2] is 2 of 4.
In the case of `CC1(C)N=C(N)N=C(N)N1c1ccc(OCCOc2ccc(S(=O)(=O)F)cc2)c(Cl)c1`, the T/C is, setting by setting: (dose: 25.0 mg/kg/injection, schedule: Q01DX009 (ip), vehicle: saline sonified) 128 % of control; (dose: 50.0 mg/kg/injection, schedule: Q04DX003 (ip), vehicle: saline sonified) 127 % of control.
On to `COC(=O)/C=C\C[P+](c1ccccc1)(c1ccccc1)c1ccccc1`, for which the survivor count (dose: 200.0 mg/kg/injection, schedule: Q01DX001 (ip), vehicle: saline) is 0 of 6 and the survivor count under setting [2] was 0 of 6.
In the case of `CC(=O)Nc1ccc(OC(=O)Nc2cccc(Cl)c2C)cc1`, the T/C is 87 and 102 % of control under setting [4]; 93, 94 (2×), 97 % of control under setting [5]. Besides, the survivor count reads like this: under setting [4], 3 of 3 and 6 of 6; under setting [6], 6 of 6.
For the molecule `C(=NCC(CCN1CCCCC1)(CCN1CCCCC1)c1cccc2ccccc12)C(CCN1CCCCC1)(CCN1CCCCC1)c1cccc2ccccc12`, the survivor count was 0 of 6 (dose: 100.0 mg/kg/injection, schedule: Q01DX009 (ip), vehicle: Klucel (hydroxypropylcellulose) (HPC)); 0 of 6 (dose: 200.0 mg/kg/injection, schedule: Q01DX009 (ip), vehicle: Klucel (hydroxypropylcellulose) (HPC)); 0 of 6 under setting [7].
With `O=C(O)CCCC[P+](c1ccccc1)(c1ccccc1)c1ccccc1`, the survivor count (dose: 400.0 mg/kg/injection, schedule: Q01DX009 (ip), vehicle: saline) is 2 of 6.
For the molecule `O=[N+]([O-])c1cc(O)cc(F)c1`, the survivor count was 0 of 6 (dose: 200.0 mg/kg/injection, schedule: Q01DX001 (ip), vehicle: carboxymethylcellulose (CMC)) and 0 of 6 under setting [8].
In the case of `CN(C)c1ccc(/C=C/C(=O)c2ccc([N+](=O)[O-])cc2)cc1`, the survivor count is, setting by setting: (dose: 25.0 mg/kg/injection, schedule: Q01DX009 (ip), vehicle: gum acacia) 6 of 6; (dose: 50.0 mg/kg/injection, schedule: Q01DX009 (ip), vehicle: gum acacia) 6 of 6; (dose: 200.0 mg/kg/injection, schedule: Q01DX009 (ip), vehicle: gum acacia) 6 of 6.
As for `CCN(CC)C(=O)C(N)Cc1ccc(OC)c(N(CCCl)CCCl)c1` (stereo unspecified), the T/C is, setting by setting: (dose: 33.0 mg/kg/injection, schedule: Q01DX001 (ip), vehicle: carboxymethylcellulose (CMC)) 125 % of control; (dose: 33.0 mg/kg/injection, schedule: Q01DX009 (ip), vehicle: carboxymethylcellulose (CMC)) 131 % of control; (dose: 50.0 mg/kg/injection, schedule: Q01DX001 (ip), vehicle: carboxymethylcellulose (CMC)) 125 % of control; (dose: 75.0 mg/kg/injection, schedule: Q01DX001 (ip), vehicle: carboxymethylcellulose (CMC), evaluated on day 30) 145 % of control; (dose: 75.0 mg/kg/injection, schedule: Q01DX001 (ip), vehicle: carboxymethylcellulose (CMC), run until all animals had died) 138 % of control; under setting [9], 141 % of control. Further, the survivor count by setting is: (dose: 112.5 mg/kg/injection, schedule: Q01DX009 (ip), vehicle: carboxymethylcellulose (CMC)) 4 of 6; (dose: 300.0 mg/kg/injection, schedule: Q01DX001 (ip), vehicle: carboxymethylcellulose (CMC)) 1 of 6.
For the molecule `CC1(C)C[N+](C)(Cc2ccccc2)C1`, the survivor count is given as 0 of 6 (dose: 200.0 mg/kg/injection, schedule: Q04DX003 (ip), vehicle: saline with Tween-80) and 0 of 6 (dose: 400.0 mg/kg/injection, schedule: Q04DX003 (ip), vehicle: saline with Tween-80).
Regarding `CCCCCC(CN(C)C)C(=O)/C=C\c1ccc(Cl)cc1Cl` (stereo unspecified), the survivor count runs as follows: (dose: 100.0 mg/kg/injection, schedule: Q04DX003 (ip), vehicle: alcohol) 2 of 6; (dose: 200.0 mg/kg/injection, schedule: Q04DX003 (ip), vehicle: alcohol) 0 of 6; (dose: 400.0 mg/kg/injection, schedule: Q04DX003 (ip), vehicle: alcohol) 0 of 6.
Regarding `CCCC(=O)OCC1OC(n2ccc(N)nc2=O)C(O)C1OC(=O)CCC` (stereo unspecified), the survivor count (dose: 400.0 mg/kg/injection, schedule: Q01DX005 (ip), vehicle: Klucel (hydroxypropylcellulose) (HPC)) is listed as 6 of 6.
For the molecule `CC(=O)OC1CC2CC1C1C3C=CC(C3)C21` (stereo unspecified), the survivor count under setting [10] is 3 of 6, the survivor count under setting [1] is reported as 5 of 6 and the survivor count under setting [11] is 0 of 6.
As for `COC(=O)C#CC(=O)OC`, the survivor count is 0 of 3 (dose: 100.0 mg/kg/injection, schedule: Q04DX003 (ip), vehicle: Klucel (hydroxypropylcellulose) (HPC)); 0 of 3 (dose: 200.0 mg/kg/injection, schedule: Q04DX003 (ip), vehicle: Klucel (hydroxypropylcellulose) (HPC)); 0 of 3 (dose: 400.0 mg/kg/injection, schedule: Q04DX003 (ip), vehicle: Klucel (hydroxypropylcellulose) (HPC)).
`N#Cc1cn(C2OC(CO)C(O)C2O)c2ncn3ccnc3c12` (stereo unspecified): where the note is “dose: 400.0 mg/kg/injection, schedule: Q04DX003 (ip), vehicle: water”, the T/C is 127 % of control (2×).
Regarding `C[N+](C)(Cc1ccc(Cl)cc1)C1c2ccccc2-c2ccccc21`, the survivor count runs as follows: (dose: 12.5 mg/kg/injection, schedule: Q04DX003 (ip), vehicle: saline) 6 of 6; under setting [10], 0 of 6; under setting [1], 0 of 6; under setting [11], 0 of 6.
Consider `C=C1C(=O)OC2CC(C)C3CC(O)OC(O)C3(C)CC12` (stereo unspecified), for which the survivor count under setting [4] was 0 of 6, the survivor count under setting [5] is 0 of 6 and the survivor count under setting [6] was 0 of 6.
For `COC1=C(NC(C)c2ccccc2)C(=O)C(OC)=C(NC(C)c2ccccc2)C1=O` (stereo unspecified), the survivor count is 4 of 4 (dose: 100.0 mg/kg/injection, schedule: Q01DX001 (ip), vehicle: carboxymethylcellulose (CMC)) and 4 of 4 under setting [8].
For the molecule `CCc1nc(=O)c2ccccc2n1C`, the survivor count runs as follows: (dose: 10.0 mg/kg/injection, schedule: Q01DX001 (ip), vehicle: saline) 0 of 6; (dose: 20.0 mg/kg/injection, schedule: Q01DX001 (ip), vehicle: saline) 0 of 6; (dose: 40.0 mg/kg/injection, schedule: Q01DX001 (ip), vehicle: saline) 0 of 6; under setting [9], 0 of 6; (dose: 150.0 mg/kg/injection, schedule: Q01DX001 (ip), vehicle: saline) 0 of 6; under setting [3], 0 of 6.
In the case of `COc1nc(N)nc2c1ncn2C1OC(CO)C(O)C1O` (stereo unspecified), under setting [3], the survivor count is 0 of 6.
As for `NS(=O)(=O)c1ccc(S(=O)(=O)NC2CCCCC2)cc1`, under setting [7], the survivor count was 6 of 6.
For the molecule `CC(CBr)C(=O)O` (stereo unspecified), the survivor count (dose: 400.0 mg/kg/injection, schedule: Q04DX002 (ip), vehicle: saline with Tween-80) was 3 of 3.
